Data taken from paper PMC6348303.
These are yes or no findings as the source states them, for the method shown. In cells and extracts the contact can be indirect. Some results given as binding are weak or reduced against the parent protein; the word gives no strength. For some assays here: Tags and fused reporters may be left off the sequences shown.

Amino acid sequences for entries named in this document (tags omitted). Residues count along the entry.
UniProt Q99805, residues 29-663: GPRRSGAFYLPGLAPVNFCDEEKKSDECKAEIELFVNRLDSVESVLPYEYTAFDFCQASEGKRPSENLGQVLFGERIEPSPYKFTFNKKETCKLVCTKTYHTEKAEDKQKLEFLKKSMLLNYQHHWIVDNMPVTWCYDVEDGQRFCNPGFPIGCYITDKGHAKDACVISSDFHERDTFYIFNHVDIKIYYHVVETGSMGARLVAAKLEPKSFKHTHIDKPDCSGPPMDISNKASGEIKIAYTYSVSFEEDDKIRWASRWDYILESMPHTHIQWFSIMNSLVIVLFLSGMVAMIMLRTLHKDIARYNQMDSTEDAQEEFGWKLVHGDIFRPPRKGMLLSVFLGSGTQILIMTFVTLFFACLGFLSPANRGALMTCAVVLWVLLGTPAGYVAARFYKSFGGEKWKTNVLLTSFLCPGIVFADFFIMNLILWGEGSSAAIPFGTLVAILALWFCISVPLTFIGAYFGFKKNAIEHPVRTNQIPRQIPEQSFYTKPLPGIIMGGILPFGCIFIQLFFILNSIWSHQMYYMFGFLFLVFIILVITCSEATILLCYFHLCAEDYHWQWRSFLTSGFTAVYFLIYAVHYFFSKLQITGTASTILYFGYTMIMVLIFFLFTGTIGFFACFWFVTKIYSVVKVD

How the values were obtained:
[1] = biological target: T1, Gb3S-NG (Gb3 synthase with moxNeonGreen fused to its C-terminus) (human) (UniProt Q9NPC4); experiment: co-IP; spHA-TM9SF2 transfected into several GT-NG-expressing cell lines; immunoprecipitation (Figure S6E)
T1 sequence: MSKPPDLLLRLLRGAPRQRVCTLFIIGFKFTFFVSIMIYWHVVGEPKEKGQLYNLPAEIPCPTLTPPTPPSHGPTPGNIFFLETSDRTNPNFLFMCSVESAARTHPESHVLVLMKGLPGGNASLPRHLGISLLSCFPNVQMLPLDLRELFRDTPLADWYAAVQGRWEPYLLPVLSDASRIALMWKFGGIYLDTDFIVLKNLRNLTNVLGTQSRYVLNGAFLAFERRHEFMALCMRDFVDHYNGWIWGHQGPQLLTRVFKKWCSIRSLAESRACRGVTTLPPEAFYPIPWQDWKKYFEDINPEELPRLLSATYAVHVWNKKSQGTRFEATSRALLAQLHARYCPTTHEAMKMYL

[2] = biological target: spHA-TM9SF2 (transmembrane 9 superfamily 2 with an HA-tag inserted following the putative signal peptide) (UniProt Q99805); experiment: co-IP; immunoprecipitation with anti-HA agarose beads of spHA-TM9SF2, spHA-TM9SF2 CΔ3 or GRINA TM4-6-HA; Gb3 synthase detected (Figure S6D)

spHA-TM9SF2 (transmembrane 9 superfamily 2 with an HA-tag inserted following the putative signal peptide) (from UniProt Q99805 29-663)
binding [1]: binds

B1: Gb3 synthase (α1,4 galactosyltransferase) (enzyme, UniProt Q9NPC4 1-353)
chain: T1 sequence
binding [2]: binds
